For this experiment, the target named is T1, MRE11^K464R protein (human) (UniProt P49959).
T1 sequence: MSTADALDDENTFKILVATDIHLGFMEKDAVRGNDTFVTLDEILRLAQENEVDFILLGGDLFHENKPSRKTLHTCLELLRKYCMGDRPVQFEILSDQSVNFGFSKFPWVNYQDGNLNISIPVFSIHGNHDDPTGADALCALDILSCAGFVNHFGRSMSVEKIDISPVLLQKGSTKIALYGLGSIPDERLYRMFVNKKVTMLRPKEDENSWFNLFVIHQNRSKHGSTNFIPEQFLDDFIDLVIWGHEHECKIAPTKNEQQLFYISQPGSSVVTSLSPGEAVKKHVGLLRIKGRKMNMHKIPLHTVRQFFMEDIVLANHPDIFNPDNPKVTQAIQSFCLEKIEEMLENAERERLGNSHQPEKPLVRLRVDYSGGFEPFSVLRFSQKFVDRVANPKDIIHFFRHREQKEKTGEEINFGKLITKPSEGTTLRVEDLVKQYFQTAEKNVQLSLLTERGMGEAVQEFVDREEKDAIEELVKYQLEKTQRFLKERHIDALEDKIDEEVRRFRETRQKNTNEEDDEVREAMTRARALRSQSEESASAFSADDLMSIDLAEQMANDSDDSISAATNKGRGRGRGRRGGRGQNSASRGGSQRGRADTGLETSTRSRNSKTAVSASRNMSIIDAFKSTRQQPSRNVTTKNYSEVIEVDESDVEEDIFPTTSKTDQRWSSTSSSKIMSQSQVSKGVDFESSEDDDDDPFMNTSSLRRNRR
As to the kind of experiment: affinity purification with mass spectrometry; MRE11 and its interacting proteins extracted from cells with an IP kit (Absin abs955) and analysed by mass spectrometry; proteins higher (Fold Change > 2) in the K464R group than in the WT group taken as interactors, then filtered with the STRING database.

Chains of the proteins cited; added tags and fusions are not shown.
UniProt P09874: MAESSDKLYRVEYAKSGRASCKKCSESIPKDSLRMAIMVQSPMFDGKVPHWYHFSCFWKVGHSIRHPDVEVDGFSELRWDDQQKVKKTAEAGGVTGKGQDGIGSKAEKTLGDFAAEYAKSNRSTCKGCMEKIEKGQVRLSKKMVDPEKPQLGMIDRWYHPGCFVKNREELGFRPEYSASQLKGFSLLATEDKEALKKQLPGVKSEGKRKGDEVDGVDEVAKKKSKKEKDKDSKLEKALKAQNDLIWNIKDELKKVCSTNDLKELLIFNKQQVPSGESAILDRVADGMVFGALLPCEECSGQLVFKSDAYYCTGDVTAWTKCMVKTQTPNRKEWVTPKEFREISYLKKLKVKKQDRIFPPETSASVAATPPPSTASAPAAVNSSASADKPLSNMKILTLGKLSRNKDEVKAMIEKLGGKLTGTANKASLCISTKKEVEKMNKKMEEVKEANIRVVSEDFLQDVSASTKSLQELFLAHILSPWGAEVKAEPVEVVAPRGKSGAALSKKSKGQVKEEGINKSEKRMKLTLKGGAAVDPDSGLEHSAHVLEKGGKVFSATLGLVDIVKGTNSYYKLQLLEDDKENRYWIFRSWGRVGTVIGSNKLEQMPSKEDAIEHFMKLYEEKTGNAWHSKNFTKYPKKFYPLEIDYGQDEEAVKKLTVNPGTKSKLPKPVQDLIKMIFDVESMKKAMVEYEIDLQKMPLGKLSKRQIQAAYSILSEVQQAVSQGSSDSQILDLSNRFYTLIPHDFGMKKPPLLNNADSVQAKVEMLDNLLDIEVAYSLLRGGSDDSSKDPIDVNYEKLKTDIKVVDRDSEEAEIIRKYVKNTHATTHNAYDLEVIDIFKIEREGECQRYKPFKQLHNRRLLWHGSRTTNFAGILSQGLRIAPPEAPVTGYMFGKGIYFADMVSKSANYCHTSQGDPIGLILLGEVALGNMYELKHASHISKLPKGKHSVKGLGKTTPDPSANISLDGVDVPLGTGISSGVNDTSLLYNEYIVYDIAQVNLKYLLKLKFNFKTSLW

No constants are given. Whether binding was seen depends on the method and setting. In cells and extracts the contact can be indirect. Here binding means that the protein was enriched with, or labelled near, the bait; the list need not be complete.

For the molecule PARP1 (from UniProt P09874 1-1014), the binding result is “binds”.

B1: DDX1 (protein, UniProt Q92499 1-740)
chain: MAAFSEMGVMPEIAQAVEEMDWLLPTDIQAESIPLILGGGDVLMAAETGSGKTGAFSIPVIQIVYETLKDQQEGKKGKTTIKTGASVLNKWQMNPYDRGSAFAIGSDGLCCQSREVKEWHGCRATKGLMKGKHYYEVSCHDQGLCRVGWSTMQASLDLGTDKFGFGFGGTGKKSHNKQFDNYGEEFTMHDTIGCYLDIDKGHVKFSKNGKDLGLAFEIPPHMKNQALFPACVLKNAELKFNFGEEEFKFPPKDGFVALSKAPDGYIVKSQHSGNAQVTQTKFLPNAPKALIVEPSRELAEQTLNNIKQFKKYIDNPKLRELLIIGGVAARDQLSVLENGVDIVVGTPGRLDDLVSTGKLNLSQVRFLVLDEADGLLSQGYSDFINRMHNQIPQVTSDGKRLQVIVCSATLHSFDVKKLSEKIMHFPTWVDLKGEDSVPDTVHHVVVPVNPKTDRLWERLGKSHIRTDDVHAKDNTRPGANSPEMWSEAIKILKGEYAVRAIKEHKMDQAIIFCRTKIDCDNLEQYFIQQGGGPDKKGHQFSCVCLHGDRKPHERKQNLERFKKGDVRFLICTDVAARGIDIHGVPYVINVTLPDEKQNYVHRIGRVGRAERMGLAISLVATEKEKVWYHVCSSRGKGCYNTRLKEDGGCTIWYNEMQLLSEIEEHLNCTISQVEPDIKVPVDEFDGKVTYGQKRAAGGGSYKGHVDILAPTVQELAALEKEAQTSFLHLGYLPNQLFRTF
Consider B1, for which the binding entry is “binds”.
